In patent US20200069684A1:
Results are given in words; binding and its absence hold for the method and conditions named. In cells and extracts the contact can be indirect. Some entries that bind do so weakly or less than the wild type.

Sequences of proteins named here, by UniProt entry; tags and fusion partners are left off. A change or cut given only in a name is not applied to a line headed by its entry.
UniProt P61586: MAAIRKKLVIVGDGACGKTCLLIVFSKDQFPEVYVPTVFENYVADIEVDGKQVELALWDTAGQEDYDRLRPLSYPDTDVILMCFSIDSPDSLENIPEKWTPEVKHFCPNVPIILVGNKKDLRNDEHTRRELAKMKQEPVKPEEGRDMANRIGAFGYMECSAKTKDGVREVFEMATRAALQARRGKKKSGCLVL

Columns and labels:
[1] = target: T1, VAV1 protein (Homo sapiens (Human)) (UniProt P15498); experiment: co-immunoprecipitation with anti-flagM2 antibody from SU9T01 cell lysate, Western blot with anti-VAV1 antibody
T1 sequence: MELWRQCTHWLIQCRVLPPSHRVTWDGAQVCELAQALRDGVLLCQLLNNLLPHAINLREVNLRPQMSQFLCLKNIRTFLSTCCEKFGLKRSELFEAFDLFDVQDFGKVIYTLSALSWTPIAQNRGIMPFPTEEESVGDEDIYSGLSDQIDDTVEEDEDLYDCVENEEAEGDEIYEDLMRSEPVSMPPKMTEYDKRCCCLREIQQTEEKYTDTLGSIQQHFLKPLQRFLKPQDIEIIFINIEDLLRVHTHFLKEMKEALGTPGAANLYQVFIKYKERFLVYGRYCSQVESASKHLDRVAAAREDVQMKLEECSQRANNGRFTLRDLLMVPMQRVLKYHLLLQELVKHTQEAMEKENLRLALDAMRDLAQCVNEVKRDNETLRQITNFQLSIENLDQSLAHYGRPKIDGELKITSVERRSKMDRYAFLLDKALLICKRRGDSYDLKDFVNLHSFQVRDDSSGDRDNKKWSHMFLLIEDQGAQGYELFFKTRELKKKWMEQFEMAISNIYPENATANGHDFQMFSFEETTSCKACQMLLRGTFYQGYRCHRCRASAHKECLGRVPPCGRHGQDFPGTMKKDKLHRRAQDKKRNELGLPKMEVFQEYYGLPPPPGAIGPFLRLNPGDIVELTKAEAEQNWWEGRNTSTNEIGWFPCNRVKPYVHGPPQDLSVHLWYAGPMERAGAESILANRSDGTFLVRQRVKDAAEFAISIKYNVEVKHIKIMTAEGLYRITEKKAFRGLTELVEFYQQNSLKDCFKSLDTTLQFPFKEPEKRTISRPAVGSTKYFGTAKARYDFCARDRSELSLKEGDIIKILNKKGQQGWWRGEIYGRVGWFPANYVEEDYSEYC

[2] = target: T1, VAV1 protein (Homo sapiens (Human)); experiment: co-immunoprecipitation with anti-flagM2 antibody from Jurkat cell lysate, Western blot with anti-VAV1 antibody

binding [1]: binds | binding [2]: binds
Substance: G17V RHOA mutant (from UniProt P61586 1-190)
